The structures appear in SMILES notation. The list does not hold the whole screen: it gathers tests that were run many times, whatever their T/C, doses with no T/C, and many T/C values between a quarter and a half above the control. Further doses and runs are listed elsewhere. T/C gives the treated animals as a percentage of the vehicle group. Some entries give survivors of the animals treated and no T/C: the source holds a T/C of zero for them, seemingly a mark for toxic or unscored doses. Some doses without a T/C left all or most animals alive at the check, yet need not have been tolerated: survival well below the control is almost never listed, so the zero probably covers shortened survival too. Counts of survivors are from the toxicity check (mostly the fifth day) where no day follows; animals may have died later. Schedule codes are those of the source, read here as Q, the interval in days (D) or hours (H), X, the number of doses. Some doses were run more than once; their values stand side by side, smallest first. Where survival is the endpoint, the PubChem record calls one and a half times the control and up active, and a quarter to a half above the control has no call in these data; cut-offs in other NCI protocols can differ. Some T/C values carry the count of animals alive at the toxicity check (mostly the fifth day); where none is given, no animal had died by that day.

This assay relates to CD2F1 mice, intracerebral P388 leukemia, median survival T/C%. As to the kind of experiment: NCI In Vivo Anticancer Drug Screen. Data for tumor model P388 Leukemia (intracerebral) in CD2F1 (CDF1) mice. Particulars: T/C endpoint: median survival time, higher T/C = longer survival. On the procedure:
The antitumor activity of compounds was measured in mice bearing transplantable tumors. Survival or tumor size were measured and the results are expressed as the measurement made in the treated group (T) divided by the measurement made in the vehicle treated control group (C). The tumor model used in this assay is P388 Leukemia (intracerebral) in CD2F1 (CDF1) mice

[1] abbreviates: dose: 50.0 mg/kg/injection, schedule: Q01DX009 (ip), vehicle: saline with Tween-80.
The mark [2] stands for this setting: dose: 100.0 mg/kg/injection, schedule: Q01DX009 (ip), vehicle: saline with Tween-80.
The mark [3] stands for this setting: dose: 2.0 mg/kg/injection, schedule: Q01DX009 (ip), vehicle: saline.
Setting [4] is: dose: 40.0 mg/kg/injection, schedule: Q01DX009 (ip), vehicle: saline.
Setting [5] is: dose: 200.0 mg/kg/injection, schedule: Q01DX009 (ip), vehicle: saline.
Setting [6] is: dose: 256.0 mg/kg/injection, schedule: Q01DX005 (ip), vehicle: Klucel (hydroxypropylcellulose) (HPC).

For the compound `O=C1NC2(CCCCC2)C(=O)N1CCN(CCCl)CCCl`, the survivor count by setting is: (dose: 3.0 mg/kg/injection, schedule: Q01DX009 (ip), vehicle: saline) 2 of 6; (dose: 10.0 mg/kg/injection, schedule: Q01DX005 (iv), vehicle: clinical formulation) 6 of 8; (dose: 10.0 mg/kg/injection, schedule: Q01DX009 (ip), vehicle: clinical formulation) 5 of 8; (dose: 20.0 mg/kg/injection, schedule: Q01DX005 (iv), vehicle: clinical formulation) 0 of 8; (dose: 20.0 mg/kg/injection, schedule: Q01DX009 (ip), vehicle: clinical formulation) 4 of 8; (dose: 24.0 mg/kg/injection, schedule: Q01DX009 (ip), vehicle: saline) 3 of 6. Also, the survivor count (dose: 40.0 mg/kg/injection, schedule: Q01DX009 (ip), vehicle: clinical formulation) is 0 of 8 and the survivor count (dose: 40.0 mg/kg/injection, schedule: Q01DX009 (ip), vehicle: saline with Tween-80) is 5 of 8. Where the note is “dose: 12.0 mg/kg/injection, schedule: Q01DX009 (ip), vehicle: saline”, the T/C is 134 % of control [5 of 6 alive].

Regarding `CCCCCC(=O)NC(Cc1ccc(N(CCCl)CCCl)cc1)C(=O)O` (centres undefined), the survivor count (dose: 42.4 mg/kg/injection, schedule: Q03HX008 (ip), vehicle: saline) is reported as 2 of 10.

On to `CN(CO)c1nc(N(C)CO)nc(N(C)CO)n1`, for which the survivor count reads like this: under setting [1], 4 of 6; under setting [2], 4 of 6 and 9 of 10; (dose: 200.0 mg/kg/injection, schedule: Q01DX009 (ip), vehicle: Klucel (hydroxypropylcellulose) (HPC)) 4 of 6 and 5 of 6; (dose: 200.0 mg/kg/injection, schedule: Q01DX009 (ip), vehicle: saline with Tween-80) 3 of 6 and 6 of 10; (dose: 400.0 mg/kg/injection, schedule: Q01DX009 (ip), vehicle: Klucel (hydroxypropylcellulose) (HPC)) 0 of 6; (dose: 400.0 mg/kg/injection, schedule: Q01DX009 (ip), vehicle: saline with Tween-80) 0 of 6. In addition, the survivor count (dose: 800.0 mg/kg/injection, schedule: Q01DX009 (ip), vehicle: saline with Tween-80) is listed as 2 of 6.

With `O=C1C=C(N2CC2)C(=O)C=C1N1CC1`, the survivor count under setting [3] is 3 of 6, 5 of 6, 6 of 6.

With `c1ccc([C@H]2CN3CCSC3=N2)cc1`, the survivor count is, setting by setting: under setting [4], 0 of 6 and 2 of 6; (dose: 80.0 mg/kg/injection, schedule: Q01DX005 (ip), vehicle: saline) 0 of 10; (dose: 80.0 mg/kg/injection, schedule: Q01DX009 (ip), vehicle: saline) 0 of 6.

For the compound `CC1(C)N=C(N)N=C(N)N1c1ccc(CCC(=O)Nc2ccc(S(=O)(=O)F)cc2)cc1`, the survivor count is given as 5 of 6 under setting [5] and 5 of 6 (dose: 400.0 mg/kg/injection, schedule: Q01DX009 (ip), vehicle: saline).

Turning to `CN(Cc1cnc2nc(N)nc(N)c2n1)c1c(Cl)cc(C(=O)NC(CCC(=O)O)C(=O)O)cc1Cl` (centres undefined), the T/C (dose: 64.0 mg/kg/injection, schedule: Q01DX005 (ip), vehicle: saline) was 128 % of control.

With `NC(CSC(c1ccccc1)(c1ccccc1)c1ccccc1)C(=O)O` (centres undefined), the survivor count under setting [6] is reported as 10 of 10.

Regarding `CCCCCCCC/C=C/CCCCCCCC(=O)Nc1ccn(C2OC(CO)C(O)C2O)c(=O)n1` (centres undefined), the survivor count is given as 9 of 10 (dose: 100.0 mg/kg/injection, schedule: Q01DX009 (ip), vehicle: saline) and 4 of 10 under setting [5].

Take `O=P1(N(CCCl)CCCl)NCCCO1` (centres undefined): the T/C (dose: 175.0 mg/kg/injection, schedule: Q01DX001 (ip), vehicle: saline) was 148 % of control.

For the compound `N[C@H](C(=O)O)[C@@H]1CC(Cl)=NO1`, the T/C under setting [3] was 149 % of control. In addition, the survivor count was 9 of 10 (dose: 16.0 mg/kg/injection, schedule: Q01DX009 (ip), vehicle: saline) and 10 of 10 (dose: 32.0 mg/kg/injection, schedule: Q01DX009 (ip), vehicle: saline).

As to `CC(C)(C)N1CC1CNC(=O)C(=O)NCC1CN1C(C)(C)C` (centres undefined), the T/C reads like this: (dose: 12.0 mg/kg/injection, schedule: Q01DX009 (ip), vehicle: saline with Tween-80) 146 % of control; (dose: 12.5 mg/kg/injection, schedule: Q01DX009 (ip), vehicle: saline with Tween-80) 139 % of control. The survivor count (dose: 25.0 mg/kg/injection, schedule: Q01DX009 (ip), vehicle: saline with Tween-80) is on record as 10 of 10; the survivor count under setting [1] was 7 of 10 and 9 of 10; the survivor count under setting [2] is reported as 0 of 10.

Consider `N=[N+]=CC(=O)CCC(NC(=O)C(CCC(=O)C=[N+]=N)NC(=O)CCC(N)C(=O)O)C(=O)O` (centres undefined), for which, where the note is “dose: 0.05 mg/kg/injection, schedule: Q01DX005 (ip), vehicle: Klucel (hydroxypropylcellulose) (HPC)”, the T/C is 135 % of control.

On to `CC1(C)N=C(N)N=C(N)N1c1ccc(CCCCc2cccc(S(=O)(=O)F)c2)c(Cl)c1`, for which, under setting [4], the survivor count is listed as 1 of 6.

In the case of `COc1cc2c(c3c1c(=O)c1ccccc1n3C)C=CC(C)(C)O2`, the T/C (dose: 128.0 mg/kg/injection, schedule: Q01DX005 (ip), vehicle: Klucel (hydroxypropylcellulose) (HPC)) is 130 % of control. Besides, the survivor count reads like this: under setting [6], 2 of 10; (dose: 512.0 mg/kg/injection, schedule: Q01DX005 (ip), vehicle: Klucel (hydroxypropylcellulose) (HPC)) 0 of 10; (dose: 1024.0 mg/kg/injection, schedule: Q01DX005 (ip), vehicle: Klucel (hydroxypropylcellulose) (HPC)) 0 of 10 and 3 of 10.

Turning to `Nc1nncs1`, the T/C (dose: 64.0 mg/kg/injection, schedule: Q01DX005 (ip), vehicle: saline with Tween-80) is 141 % of control. Further, the survivor count was 9 of 10 (dose: 256.0 mg/kg/injection, schedule: Q01DX005 (ip), vehicle: saline with Tween-80); 6 of 10 and 10 of 10 (dose: 512.0 mg/kg/injection, schedule: Q01DX005 (ip), vehicle: saline with Tween-80).

With `CC[n+]1c(-c2ccccc2)c2cc(N)ccc2c2ccc(N)cc21`, the survivor count runs as follows: (dose: 24.0 mg/kg/injection, schedule: Q01DX005 (ip), vehicle: saline) 10 of 10; (dose: 48.0 mg/kg/injection, schedule: Q01DX005 (ip), vehicle: saline) 8 of 10 and 9 of 10; (dose: 96.0 mg/kg/injection, schedule: Q01DX005 (ip), vehicle: saline) 0 of 10.

Consider `CC[C@H]1CN2CCc3cc(OC)c(OC)cc3[C@@H]2C[C@@H]1C[C@H]1NCCc2cc(OC)c(OC)cc21`, for which the survivor count (dose: 16.0 mg/kg/injection, schedule: Q01DX005 (ip), vehicle: Klucel (hydroxypropylcellulose) (HPC)) is 5 of 10 and 8 of 10.

The values above are taken from PubChem BioAssay AID334 (DTP/NCI, 2004).
